Experimental data from the supplement of paper PMC12067093, “Discovery and optimisation of a covalent ligand for TRIM25 and its application to targeted protein ubiquitination” (Chemical Science, 2025).
Some of the results follow.

Compound: CC1Cc2ccccc2N1C(=O)C1CCCN(C1)C(=O)CCl (mixture of isomers) [TRIM25 ligand 11 (diastereomer mixture)]
Assay: probe-labelled cysteine peptide fold change vs DMSO (competition) (log2 fold change); higher = less target engagement (more negative = stronger competition)
Settings: THP-1, incubation time: 4 h
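Also: competitive chemoproteomic profiling in live THP-1 cells with an iodoacetamide desthiobiotin (IA-DTB) probe, comparing probe-labelled peptide intensities in compound-treated cells against DMSO-treated controls.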

Row | Target | probe-labelled cysteine peptide fold change (10 µM) | probe-labelled cysteine peptide fold change (50 µM)
1 | PTPRC_P08575_1072_HGDQEICAQYWGEGK (UniProt P08575) | 0.201 | 0.122
2 | PTCD1_O75127_565_GLVPNLQTFCNLAIGCHRPK (UniProt O75127) | -0.241 | -0.0532
3 | PSMA6_P60900_47_DCAVIVTQK (UniProt P60900) | 0.061 | 0.127
4 | PSMD13_Q9UNM6_114_SSDEAVILCK (UniProt Q9UNM6) | 0.115 | -0.055
5 | PUM1_Q14671_234_SESGGLGVSMVEYVLSSSPGDSCLRK (UniProt Q14671) | -0.338 | -0.386
6 | PSMD1_Q99460_659+660_YGAAMALGICCAGTGNK (UniProt Q99460) | 0.198 | 0.149
7 | PSMC3_P17980_240_ACAAQTK (UniProt P17980) | -0.0602 | -0.0365
8 | PTK2B_Q14289_180_VSEGMALQLGCLELRR (UniProt Q14289) | -0.333 | 0.0668
9 | PTRHD1_Q6GMV3_52_DLSQAPFSWPAGALVAQACHAATAALHTHR (UniProt Q6GMV3) | -0.0302 | 0.0238
10 | PTPN7_P35236_291_LVAEVEESPETAAHPGPIVVHCSAGIGR (UniProt P35236) | 0.0965 | -0.335
11 | PTPRF_P10586_1891_TQRPAMVQTEDQYQLCYR (UniProt P10586) | 0.0146 | -0.112
12 | PSMC4_P43686_210_GVLMYGPPGCGK (UniProt P43686) | -0.0493 | -0.126
13 | PTPA_Q15257_103_AGHCAPSEAIEK (UniProt Q15257) | 0.00322 | -0.128
14 | PTRHD1_Q6GMV3_118_NIDHMLWLEQPENIATCIALRPYPK (UniProt Q6GMV3) | -0.291 | -0.258

Single values from the entries so far.
PTPA_Q15257_103_AGHCAPSEAIEK (UniProt Q15257) – probe-labelled cysteine peptide fold change (50 µM): -0.128
PSMC4_P43686_210_GVLMYGPPGCGK (UniProt P43686) – probe-labelled cysteine peptide fold change (50 µM): -0.126
